In article PMC10292663:
No constants are given. Whether binding was seen depends on the method and setting. In cells and extracts the contact can be indirect. Some results given as binding are weak or reduced against the parent protein; the word gives no strength.

Protein sequences, listed by entry. Tags and fused reporters are not part of them.
UniProt Q02539: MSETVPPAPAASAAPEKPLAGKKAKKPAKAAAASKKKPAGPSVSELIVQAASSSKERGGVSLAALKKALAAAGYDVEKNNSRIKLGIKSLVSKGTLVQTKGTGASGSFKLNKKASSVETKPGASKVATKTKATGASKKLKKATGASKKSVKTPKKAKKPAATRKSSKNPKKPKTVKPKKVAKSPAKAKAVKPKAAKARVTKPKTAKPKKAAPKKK
UniProt P16402: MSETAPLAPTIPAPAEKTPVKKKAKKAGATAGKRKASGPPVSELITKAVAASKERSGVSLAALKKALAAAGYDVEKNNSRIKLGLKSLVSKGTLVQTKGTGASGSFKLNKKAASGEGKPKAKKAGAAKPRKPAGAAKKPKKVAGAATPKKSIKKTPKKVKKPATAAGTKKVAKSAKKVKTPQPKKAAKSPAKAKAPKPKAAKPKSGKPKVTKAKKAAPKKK

Legend:
Experiment in all cases: co-IP; GFP immunoprecipitation (GFP-Trap agarose) from 2.5 mg whole-cell extract of co-transfected HEK293 cells, 2 h at 4°C; cells treated or not with 10 Gy IR or 3 mM HU for 2 h (2 or 4 h for the BRCA1 fragments); Western blot
GFP-BRCA1 = GFP-BRCA1 (UniProt P38398)
GFP-BRCA1 S1336A mutant = GFP-BRCA1 S1336A mutant (UniProt P38398)
GFP-BRCA1 (1–1,071) = GFP-BRCA1 (1–1,071) (UniProt P38398)
GFP-BRCA1 (1,063–1,863) = GFP-BRCA1 (1,063–1,863) (UniProt P38398)

| binding (GFP-BRCA1) | binding (GFP-BRCA1 S1336A mutant) | binding (GFP-BRCA1 (1–1,071)) | binding (GFP-BRCA1 (1,063–1,863)) | Substance |
| --- | --- | --- | --- | --- |
| binds | – | – | – | FLAG-H1.1 (from UniProt Q02539 1-215) |
| binds | binds | binds | binds | FLAG-H1.3 (from UniProt P16402 1-221) |
